This assay addresses T1, GST-tagged wild-type Ana2, treated with kinase-dead Plk4 (not phosphorylated) (Drosophila melanogaster), Q9XZ31.
T1 chain: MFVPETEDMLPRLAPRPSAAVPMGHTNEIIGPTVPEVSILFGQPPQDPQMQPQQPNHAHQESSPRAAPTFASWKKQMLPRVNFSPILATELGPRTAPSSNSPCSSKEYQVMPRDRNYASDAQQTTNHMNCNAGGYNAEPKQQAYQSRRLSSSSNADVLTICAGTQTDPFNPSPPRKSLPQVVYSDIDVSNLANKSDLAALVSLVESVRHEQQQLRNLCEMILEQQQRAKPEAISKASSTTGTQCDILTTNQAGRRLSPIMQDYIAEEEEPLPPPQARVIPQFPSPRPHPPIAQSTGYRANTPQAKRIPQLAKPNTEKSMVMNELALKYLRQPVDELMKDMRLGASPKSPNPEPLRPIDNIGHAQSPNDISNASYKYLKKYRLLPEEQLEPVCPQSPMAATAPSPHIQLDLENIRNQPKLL
The assay can be described thus: pull-down; GST-tagged wild-type or S38A Ana2 from E. coli immobilized on beads, treated with active or kinase-dead Plk4, then incubated with S^35-labelled Sas6 from coupled IVTT; only the target purified. As to conditions: remark: other sources report otherwise.

These are yes or no findings as the source states them, for the method shown. Binding seen in cells or lysates may run through a third protein. Sequences can lack the tags named with a protein.

B1: S^35-labelled Sas6, generated by coupled IVTT, Q9VAC8 1-472 (protein)
chain: MWPPGSEDSYSAKMDYGKSVVNILPSVEMLVNFNGEMTRSSKRSCLLYAERVDFKELLQLRLTEKSDQRRMYITTVDSASFQDLKQDQSLNVSFSGFIDNVVRMLKDCQSGKLELHLTTRDQNLSSGREVHDYYLQFVEIRSFKNLVHLSLPCRSAPLNTVLFYINSMLEASHKKQYILEQSMQQMQAEINAQRAHAERLTTENTNIREALAENTRILEEKHAAEVHQYQEKLSKINEQRSNELERNRRAISGFQAQLDKASLEKAELKSAQEQAEKRCQTLSEELSCCKARVCTLKEQNDKLHGDVANIRKHERKLEYKIEDLKQHTVELQEHIQKGNKEKANIAAELEAEKKILHTKRQALEMASEEISKANQIIVKQSQELLNLKKTIAWRTEVALQQEKAVQAKESLLSLRENELREARITIEKLREEIPQQLQSMRNFAQGLEQKYSKQILILKERLAIPTGKENRR
modifications: here or on the partner: S^35-labelled
Take B1: the binding entry is listed as “no binding”.

For the origin of these results see paper PMC5746551.
